From article PMC4231747
These are yes or no findings as the source states them, for the method shown. Binding seen in cells or lysates may run through a third protein. Here binding means that the protein was enriched with, or labelled near, the bait; the list need not be complete.

The chains behind the UniProt entries cited, without tags or fusion partners.
UniProt P40160: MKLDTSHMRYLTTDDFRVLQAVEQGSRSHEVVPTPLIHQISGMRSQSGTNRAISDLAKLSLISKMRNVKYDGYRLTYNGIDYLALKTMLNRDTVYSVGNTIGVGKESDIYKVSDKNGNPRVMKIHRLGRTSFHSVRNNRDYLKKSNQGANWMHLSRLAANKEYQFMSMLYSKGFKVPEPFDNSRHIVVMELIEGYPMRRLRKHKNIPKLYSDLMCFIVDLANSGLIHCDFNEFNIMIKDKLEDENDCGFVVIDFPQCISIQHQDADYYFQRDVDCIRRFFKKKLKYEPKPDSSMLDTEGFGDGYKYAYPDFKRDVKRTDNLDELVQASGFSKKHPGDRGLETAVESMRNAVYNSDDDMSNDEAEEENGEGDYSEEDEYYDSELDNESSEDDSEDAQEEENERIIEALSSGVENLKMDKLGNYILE
UniProt P41819: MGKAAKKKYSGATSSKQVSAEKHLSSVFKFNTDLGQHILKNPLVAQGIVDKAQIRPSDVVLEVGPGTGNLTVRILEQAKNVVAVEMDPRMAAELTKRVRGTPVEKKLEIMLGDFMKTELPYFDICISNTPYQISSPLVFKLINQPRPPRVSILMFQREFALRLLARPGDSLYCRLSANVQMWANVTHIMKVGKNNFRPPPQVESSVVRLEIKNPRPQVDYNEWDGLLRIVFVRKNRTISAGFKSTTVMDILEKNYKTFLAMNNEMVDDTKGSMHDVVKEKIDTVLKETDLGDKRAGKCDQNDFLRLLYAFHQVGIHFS

Assays:
[1] = biological target: T1, Nob1-HTP (S. cerevisiae) (UniProt Q08444); assay: affinity purification with mass spectrometry; pre-ribosomal particles purified from yeast by the tagged bait (Nob1-HTP, Pno1-TAP, Rio2-TAP, Rio1-TAP), fractionated on a Superose 6 gel filtration column; elution fractions 1-5 digested and analysed by LC-MS/MS
T1 sequence: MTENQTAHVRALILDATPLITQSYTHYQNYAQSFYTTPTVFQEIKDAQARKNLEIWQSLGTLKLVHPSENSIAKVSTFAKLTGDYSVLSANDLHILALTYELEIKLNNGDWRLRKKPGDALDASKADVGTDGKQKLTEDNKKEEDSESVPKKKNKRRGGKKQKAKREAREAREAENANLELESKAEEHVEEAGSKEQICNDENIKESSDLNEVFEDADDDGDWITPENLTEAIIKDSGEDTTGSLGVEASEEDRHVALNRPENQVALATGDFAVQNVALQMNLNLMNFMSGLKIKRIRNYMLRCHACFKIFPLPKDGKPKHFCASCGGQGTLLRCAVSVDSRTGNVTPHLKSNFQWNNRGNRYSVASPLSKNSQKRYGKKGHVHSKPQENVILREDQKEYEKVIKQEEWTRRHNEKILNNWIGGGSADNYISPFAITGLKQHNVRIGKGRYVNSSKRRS

[2] = biological target: Rio2-TAP (S. cerevisiae) (UniProt P40160); assay: as above

**Q.** How did the binding [1] turn out when Dim1 (from UniProt P41819 1-318) was run?
**A.** The binding was “binds”.

**Q.** What about the binding [2] of the same substance?
**A.** The binding was “binds”.
